Measurements taken from article PMC6347451.
No constants are given. Whether binding was seen depends on the method and setting. In cells and extracts the contact can be indirect. Some entries that bind do so weakly or less than the wild type. Tags and fused reporters may be left off the sequences shown.

By UniProt entry, the sequences of proteins in these tests, tags left out. Residues count along the entry.
UniProt Q9BPX6, residues 34-476: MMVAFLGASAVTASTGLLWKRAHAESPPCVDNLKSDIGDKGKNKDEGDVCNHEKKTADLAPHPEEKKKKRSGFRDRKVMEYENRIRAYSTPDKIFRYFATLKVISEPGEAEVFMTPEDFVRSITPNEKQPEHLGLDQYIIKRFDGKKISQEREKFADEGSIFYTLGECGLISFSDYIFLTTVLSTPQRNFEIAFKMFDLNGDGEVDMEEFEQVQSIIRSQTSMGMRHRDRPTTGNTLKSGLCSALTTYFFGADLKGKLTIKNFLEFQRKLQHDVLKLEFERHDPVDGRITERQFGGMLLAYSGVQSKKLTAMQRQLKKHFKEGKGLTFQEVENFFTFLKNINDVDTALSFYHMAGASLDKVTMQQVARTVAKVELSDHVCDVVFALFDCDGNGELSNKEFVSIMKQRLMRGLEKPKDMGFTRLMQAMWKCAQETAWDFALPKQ

B1: 1D4-tagged MCU homologue from Dictyostelium discoideum (protein, UniProt Q54LT0 29-275)
chain: EGELKTILGQAKVSKLQEKLKLDPRSKITFNDFKGIAKEVGIEEKEINSVSNALAQSGSIIYLPNSLNENLKTSVFTKPAHIYQSLEHILDIENKGVGLNKLIESKKSEINSLRQKIQPLEEKKQVIDRKAHRRATAIIWTGLGYCFAQAAILARLTWWDLSWDIIEPVSYFLTFGSVLIGYTYFTMTKTEFTYEALNHRLFSKRQDKLFKRNNFPKEDYENLVQAIDKKEKELKELELATKYDHTH
B2: 1D4-tagged MCU homologue from Drosophila melanogaster (protein, UniProt Q8IQ70 54-366)
chain: ASTAEDGETDKHKKPTTGEDIYVEYVNGMPHMTVRLPSRNELCQFALKPISHNVGDLLAMLRAEDRGIDRAAVINKHGVRIASSCTIESLLDDSFSIQINNRTLDVNPPKRDKVTLESMDKVGDVRKVIAQLYEAFNVGEYQLEKSNQLAKELETLRYELEPLEEKKLELSKKAARRTNFMTWMGLGLMSVQFGILARLTWWEYSWDIMEPVTYFVTYGTTMAMYAYYCVTKREYMMEDVKNREFSLSLYRNAKKVQFDVEHYNELKRKSAELEYNLRRINDPLNMQLPSHLVRTQENTPPTLTEEKAERKYT
B3: 1D4-tagged MCU homologue from Caenorhabditis elegans (protein, UniProt Q21121 23-333)
chain: TLWNRQQIAFSTTTASSSTSPIQESSSPLSIRFEYGLPLLDVPLPSRNEPCQFTMRPLSDTIGSLCEFLRQEDRGIDYVAVYGTNGVKLATCTSIEHLLQFGSFRLRLNDKFFDVTVPKTGTMPYDSDKLRQLDDLRATVASLHAALCVDEYKLSREKKLLLQLENAETLLAPLHDAKRKIEQECEAHTDRVMWAGFAAMGVQTGLFARLTWWEYSWDIMEPVTYFATYSTVCATFGYYLYTQQSFEYPSARERVYTKQFYRRAQKQNFDIEKYNRLVTEVDELRNQLKRMRDPLFQHLPVSYLSNLEAEK

Molecular target: FLAG-tagged WT human MICU1 (human) (UniProt Q9BPX6)
Assay: co-IP; FLAG-tagged MICU1 (or MICU2) held on FLAG-affinity resin pulls down co-expressed 1D4-tagged MCU; MCU/EMRE-KO HEK 293 cells; 4 °C; 100 mM NaCl, 20 mM Tris, 1 mM EGTA, 5 mM DDM, pH 7.5; 30 min batch binding; Western with anti-FLAG and anti-1D4; in Figure 5A with 50, 150 or 500 mM NaCl

binding, binds:
B1
B2
B3
